Experimental data: paper PMC5799093, “Proceedings of Réanimation 2018, the French Intensive Care Society International Congress” (Annals of Intensive Care, 2018)

What was measured:
11C-BUP brain binding = conditions: 20 mg kg DZP subcutaneously 15 min before 11C-BUP; all studied brain regions
[1] = system: diaphragm contraction and workload; assay: Diaphragmatic electromyography after diazepam / buprenorphine; assay type: in vivo, Sprague–Dawley rat; conditions: 30 mg kg BUP intraperitoneally, 20 mg kg DZP subcutaneously

CN1C(=O)CN=C(c2ccccc2)c2cc(Cl)ccc21 [diazepam]
TACs and 11C-BUP BPND, DZP BUP vs VEH BUP (11C-BUP brain binding): not different | diaphragm contraction (first 60 min AUC) [1]: This increase was inhibited in the presence of DZP
